# The supplement of paper PMC8728848
# Some of the results follow.
# B1: HA-61200 (Pseudomonas aeruginosa), Q02SP8_PSEAB (protein)
# chain: MNKCYALVWNVSQGCWNVVSEGSRRRGKPAGAKAAIASVLALLGATALAPAYALPSGGTVVGGSANGEIHLSGGNSLSVNQKVDKLIANWDSFSVAAGERVIFNQPSSSSIALNRVIGTKASDIQGRIDANGQVFLVNPNGVLFGRGAQVNVGGLVASTLDITDAEFNGNSSRYRFTGPSTNGVLNHGGAITAAEGGSIALLGAQVDNRGTVLAQMGGVGLGAGSDLTLNFDGNKLLDIRVDAGVANALASNGGLLKADGGRVLMAARTANALLNTVVNSQGAIEARSLRGKNGRIVLDG
# What was measured:
# Assay in all cases: glycan array binding signal (z-score within array); higher = stronger binding
# Conditions in all cases: glycan notation: IUPAC condensed, linker removed
# [1] = molecular target: GlcNAc(b1-3)GalNAc
# How it was run: (§1)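 Glycan array data came from 3228 arrays in the Consortium for Functional Glycomics database, and only arrays with an available protein sequence were kept. Glycan names were put into IUPAC-condensed notation, and columns mapping to the same glycan were averaged. The binding signal is a within-array Z-score, averaged across arrays of one protein sequence run at different concentrations or buffers and across linkers. A negative Z-score can be read as non-binding.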
# [2] = molecular target: GlcNAc(b1-3)Man
# How it was run: as §1
# [3] = molecular target: GlcNAc(b1-3)[GlcNAc(b1-4)][GlcNAc(b1-6)]GlcNAc
# How it was run: as §1
# [4] = molecular target: GlcNAc(b1-3)[GlcNAc(b1-6)]Gal(b1-4)GlcNAc
# How it was run: as §1
# [5] = molecular target: GlcNAc(b1-3)[GlcNAc(b1-6)]GalNAc
# How it was run: as §1
# [6] = molecular target: GlcNAc(b1-4)Gal(b1-4)GlcNAc
# How it was run: as §1
# [7] = molecular target: GlcNAc(b1-4)GlcNAc
# How it was run: as §1
# [8] = molecular target: GlcNAc(b1-4)GlcNAc(b1-4)GlcNAc
# How it was run: as §1
# [9] = molecular target: GlcNAc(b1-4)GlcNAc(b1-4)GlcNAc(b1-4)GlcNAc(b1-4)GlcNAc
# How it was run: as §1
# [10] = molecular target: GlcNAc(b1-4)GlcNAc(b1-4)GlcNAc(b1-4)GlcNAc(b1-4)GlcNAc(b1-4)GlcNAc
# How it was run: as §1
# [11] = molecular target: GlcNAc(b1-4)[GlcNAc(b1-6)]GalNAc
# How it was run: as §1
# [12] = molecular target: GlcNAc(b1-6)Gal(b1-4)GlcNAc
# How it was run: as §1
# [13] = molecular target: GlcNAc(b1-6)GalNAc
# How it was run: as §1
# [14] = molecular target: GlcNAc6S(b1-3)Gal(b1-4)GlcNAc
# How it was run: as §1
# [15] = molecular target: Kdn(a2-3)Gal(b1-3)GalNAc
# How it was run: as §1
# [16] = molecular target: Kdn(a2-3)Gal(b1-3)GlcNAc
# How it was run: as §1
# [17] = molecular target: Kdn(a2-3)Gal(b1-4)Glc
# How it was run: as §1
# [18] = molecular target: Kdn(a2-3)Gal(b1-4)GlcNAc
# How it was run: as §1
# [19] = molecular target: Kdn(a2-3)Gal(b1-4)[Fuc(a1-3)]GlcNAc
# How it was run: as §1
# [20] = molecular target: Kdn(a2-6)Gal(b1-4)GlcNAc
# How it was run: as §1
# [21] = molecular target: Man(a1-2)Man(a1-2)Man(a1-3)Man
# How it was run: as §1
# [22] = molecular target: Man(a1-2)Man(a1-2)Man(a1-6)[Man(a1-3)]Man
# How it was run: as §1
# [23] = molecular target: Man(a1-2)Man(a1-3)Man
# How it was run: as §1
# [24] = molecular target: Man(a1-2)Man(a1-3)[Man(a1-2)Man(a1-6)]Man
# How it was run: as §1
# [25] = molecular target: Man(a1-2)Man(a1-3)[Man(a1-2)Man(a1-6)]Man(a1-6)[Man(a1-2)Man(a1-2)Man(a1-3)]Man
# How it was run: as §1
# [26] = molecular target: Man(a1-2)Man(a1-3)[Man(a1-2)Man(a1-6)]Man(a1-6)[Man(a1-2)Man(a1-2)Man(a1-3)]Man(b1-4)GlcNAc(b1-4)GlcNAc
# How it was run: as §1
# [27] = molecular target: Man(a1-2)Man(a1-3)[Man(a1-6)]Man(a1-6)[Man(a1-2)Man(a1-3)]Man(b1-4)GlcNAc(b1-4)GlcNAc
# How it was run: as §1
# [28] = molecular target: Man(a1-2)Man(a1-6)[Man(a1-3)]Man(a1-6)[Man(a1-2)Man(a1-2)Man(a1-3)]Man
# How it was run: as §1
# [29] = molecular target: Man(a1-2)Man(a1-6)[Man(a1-3)]Man(a1-6)[Man(a1-2)Man(a1-2)Man(a1-3)]Man(b1-4)GlcNAc(b1-4)GlcNAc
# How it was run: as §1
# [30] = molecular target: Man(a1-3)[Man(a1-6)]Man
# How it was run: as §1
# [31] = molecular target: Man(a1-3)[Man(a1-6)]Man(a1-6)[Man(a1-2)Man(a1-3)]Man(b1-4)GlcNAc(b1-4)GlcNAc
# How it was run: as §1
# [32] = molecular target: Man(a1-3)[Man(a1-6)]Man(a1-6)[Man(a1-3)]Man
# How it was run: as §1
# [33] = molecular target: Man(a1-3)[Man(a1-6)]Man(a1-6)[Man(a1-3)]Man(b1-4)GlcNAc(b1-4)GlcNAc
# How it was run: as §1
# [34] = molecular target: Man(a1-3)[Man(a1-6)]Man(b1-4)GlcNAc(b1-4)GlcNAc
# How it was run: as §1
# [35] = molecular target: Man(a1-3)[Man(a1-6)]Man(b1-4)GlcNAc(b1-4)[Fuc(a1-6)]GlcNAc
# How it was run: as §1
# [36] = molecular target: Man(a1-6)Man
# How it was run: as §1
# [37] = molecular target: Man(b1-4)GlcNAc
# How it was run: as §1
# [38] = molecular target: MurNAc(b1-4)GlcNAc
# How it was run: as §1
binder,measurement,setting,value
B1,glycan array binding signal (z-score),[1],-0.301
same,glycan array binding signal (z-score),[2],-0.483
same,glycan array binding signal (z-score),[3],-0.922
same,glycan array binding signal (z-score),[4],-1.07
same,glycan array binding signal (z-score),[5],-0.141
same,glycan array binding signal (z-score),[6],0.684
same,glycan array binding signal (z-score),[7],0.176
same,glycan array binding signal (z-score),[8],-1.15
same,glycan array binding signal (z-score),[9],0.132
same,glycan array binding signal (z-score),[10],0.137
same,glycan array binding signal (z-score),[11],0.797
same,glycan array binding signal (z-score),[12],-0.529
same,glycan array binding signal (z-score),[13],0.187
same,glycan array binding signal (z-score),[14],0.69
same,glycan array binding signal (z-score),[15],-0.393
same,glycan array binding signal (z-score),[16],-0.687
same,glycan array binding signal (z-score),[17],-0.912
same,glycan array binding signal (z-score),[18],0.32
same,glycan array binding signal (z-score),[19],1.87
same,glycan array binding signal (z-score),[20],-0.106
same,glycan array binding signal (z-score),[21],-0.132
same,glycan array binding signal (z-score),[22],-0.079
same,glycan array binding signal (z-score),[23],-0.703
same,glycan array binding signal (z-score),[24],-0.334
same,glycan array binding signal (z-score),[25],0.009
same,glycan array binding signal (z-score),[26],-0.76
same,glycan array binding signal (z-score),[27],-0.706
same,glycan array binding signal (z-score),[28],-1.34
same,glycan array binding signal (z-score),[29],-0.59
same,glycan array binding signal (z-score),[30],-0.522
same,glycan array binding signal (z-score),[31],-0.418
same,glycan array binding signal (z-score),[32],-0.929
same,glycan array binding signal (z-score),[33],1.41
same,glycan array binding signal (z-score),[34],-0.272
same,glycan array binding signal (z-score),[35],-0.504
same,glycan array binding signal (z-score),[36],-0.102
same,glycan array binding signal (z-score),[37],0.051
same,glycan array binding signal (z-score),[38],-0.605
